# Data from the supplement of paper PMC12823440, “Inhibitors supercharge kinase turnover through native proteolytic circuits” (Nature, 2025).
# The chains behind the UniProt entries cited, without tags or fusion partners. Where a name states a change or a piece, a line headed by the entry shows the natural chain unless it says otherwise.
# UniProt Q14289, whole entry, looked up: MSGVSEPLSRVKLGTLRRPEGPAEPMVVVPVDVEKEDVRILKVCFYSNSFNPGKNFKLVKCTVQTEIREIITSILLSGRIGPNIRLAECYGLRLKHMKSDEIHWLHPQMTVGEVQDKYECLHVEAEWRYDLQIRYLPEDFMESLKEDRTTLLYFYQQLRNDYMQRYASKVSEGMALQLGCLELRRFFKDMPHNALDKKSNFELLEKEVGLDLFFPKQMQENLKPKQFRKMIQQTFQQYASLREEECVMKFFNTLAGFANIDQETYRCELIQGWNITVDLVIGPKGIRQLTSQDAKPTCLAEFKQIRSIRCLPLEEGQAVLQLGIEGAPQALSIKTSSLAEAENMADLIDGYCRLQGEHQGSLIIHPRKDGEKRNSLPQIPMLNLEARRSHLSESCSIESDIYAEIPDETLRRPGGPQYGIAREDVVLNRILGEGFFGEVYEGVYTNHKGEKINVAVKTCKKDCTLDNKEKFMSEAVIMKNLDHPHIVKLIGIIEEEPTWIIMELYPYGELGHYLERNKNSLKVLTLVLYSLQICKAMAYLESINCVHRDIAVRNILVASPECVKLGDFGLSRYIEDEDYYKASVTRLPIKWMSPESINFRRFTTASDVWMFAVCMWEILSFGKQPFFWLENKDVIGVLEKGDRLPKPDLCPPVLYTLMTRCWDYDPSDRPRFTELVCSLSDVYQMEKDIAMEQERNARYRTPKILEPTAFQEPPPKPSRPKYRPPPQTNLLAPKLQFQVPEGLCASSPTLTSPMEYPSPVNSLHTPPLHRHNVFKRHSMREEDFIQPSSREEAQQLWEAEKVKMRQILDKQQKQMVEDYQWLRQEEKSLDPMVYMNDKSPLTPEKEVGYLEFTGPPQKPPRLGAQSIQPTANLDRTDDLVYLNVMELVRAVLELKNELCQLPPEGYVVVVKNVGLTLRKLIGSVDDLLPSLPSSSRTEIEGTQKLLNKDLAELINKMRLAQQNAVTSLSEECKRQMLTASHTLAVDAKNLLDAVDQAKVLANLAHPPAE
# UniProt P41240: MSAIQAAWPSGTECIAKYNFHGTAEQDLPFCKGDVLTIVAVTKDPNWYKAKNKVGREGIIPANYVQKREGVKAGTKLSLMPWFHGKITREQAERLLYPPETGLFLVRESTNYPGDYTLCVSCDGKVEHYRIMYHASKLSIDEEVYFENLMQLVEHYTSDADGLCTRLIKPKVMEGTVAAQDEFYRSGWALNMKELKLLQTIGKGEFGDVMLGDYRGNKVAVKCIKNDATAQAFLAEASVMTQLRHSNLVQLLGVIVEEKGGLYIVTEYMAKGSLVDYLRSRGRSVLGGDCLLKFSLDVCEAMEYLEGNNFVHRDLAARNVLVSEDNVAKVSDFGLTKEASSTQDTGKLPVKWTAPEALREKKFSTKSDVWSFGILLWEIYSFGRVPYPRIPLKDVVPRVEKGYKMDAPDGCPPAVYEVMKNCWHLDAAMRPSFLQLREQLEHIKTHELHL
# UniProt Q15208: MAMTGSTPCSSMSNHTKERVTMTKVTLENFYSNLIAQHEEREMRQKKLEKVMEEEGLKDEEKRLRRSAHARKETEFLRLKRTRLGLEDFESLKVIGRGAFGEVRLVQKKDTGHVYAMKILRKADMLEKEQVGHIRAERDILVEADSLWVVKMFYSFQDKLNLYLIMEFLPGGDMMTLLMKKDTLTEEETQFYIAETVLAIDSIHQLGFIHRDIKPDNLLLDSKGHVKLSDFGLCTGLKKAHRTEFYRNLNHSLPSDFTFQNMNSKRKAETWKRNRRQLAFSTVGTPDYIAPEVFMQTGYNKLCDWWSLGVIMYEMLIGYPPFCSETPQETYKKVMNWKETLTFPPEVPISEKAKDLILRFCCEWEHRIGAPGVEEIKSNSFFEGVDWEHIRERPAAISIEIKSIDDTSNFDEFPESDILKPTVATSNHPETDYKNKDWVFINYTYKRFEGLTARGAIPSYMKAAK
# UniProt O96013: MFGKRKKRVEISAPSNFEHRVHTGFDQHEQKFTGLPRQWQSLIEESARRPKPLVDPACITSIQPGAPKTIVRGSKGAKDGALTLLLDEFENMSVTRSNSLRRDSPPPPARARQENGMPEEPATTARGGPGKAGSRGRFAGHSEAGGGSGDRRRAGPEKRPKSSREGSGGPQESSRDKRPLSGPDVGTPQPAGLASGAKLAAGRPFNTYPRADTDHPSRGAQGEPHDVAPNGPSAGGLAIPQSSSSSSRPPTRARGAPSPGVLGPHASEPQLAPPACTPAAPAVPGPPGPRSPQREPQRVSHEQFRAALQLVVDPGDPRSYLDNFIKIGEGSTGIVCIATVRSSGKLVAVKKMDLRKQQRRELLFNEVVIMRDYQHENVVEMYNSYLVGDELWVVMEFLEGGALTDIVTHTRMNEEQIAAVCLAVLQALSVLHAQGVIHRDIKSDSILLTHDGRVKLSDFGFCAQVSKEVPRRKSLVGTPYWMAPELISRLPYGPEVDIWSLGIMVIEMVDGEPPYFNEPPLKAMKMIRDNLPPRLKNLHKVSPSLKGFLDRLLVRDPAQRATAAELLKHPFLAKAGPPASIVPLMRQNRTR
# UniProt Q16620, whole entry, looked up: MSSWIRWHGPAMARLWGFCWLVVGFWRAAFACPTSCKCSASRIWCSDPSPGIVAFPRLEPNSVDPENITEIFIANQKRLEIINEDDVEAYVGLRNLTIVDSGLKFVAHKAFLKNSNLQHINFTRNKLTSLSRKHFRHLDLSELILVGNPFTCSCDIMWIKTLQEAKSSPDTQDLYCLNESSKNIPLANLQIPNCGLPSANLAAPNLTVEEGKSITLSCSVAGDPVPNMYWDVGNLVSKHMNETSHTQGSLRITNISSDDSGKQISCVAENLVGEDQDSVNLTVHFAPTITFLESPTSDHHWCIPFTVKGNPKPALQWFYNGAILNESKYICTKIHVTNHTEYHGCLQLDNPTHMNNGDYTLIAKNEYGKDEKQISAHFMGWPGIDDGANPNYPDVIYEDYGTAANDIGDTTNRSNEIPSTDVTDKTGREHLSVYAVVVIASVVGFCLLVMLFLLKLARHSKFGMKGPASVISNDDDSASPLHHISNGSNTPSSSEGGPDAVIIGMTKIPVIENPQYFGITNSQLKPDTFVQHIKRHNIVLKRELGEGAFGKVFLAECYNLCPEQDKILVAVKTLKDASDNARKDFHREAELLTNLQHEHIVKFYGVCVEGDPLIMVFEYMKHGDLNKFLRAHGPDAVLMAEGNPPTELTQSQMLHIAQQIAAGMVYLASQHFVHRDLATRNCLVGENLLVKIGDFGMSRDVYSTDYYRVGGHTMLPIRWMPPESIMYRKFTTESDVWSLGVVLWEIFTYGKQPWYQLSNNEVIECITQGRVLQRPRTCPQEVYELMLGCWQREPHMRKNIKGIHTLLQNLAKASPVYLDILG
# UniProt P29317, whole entry: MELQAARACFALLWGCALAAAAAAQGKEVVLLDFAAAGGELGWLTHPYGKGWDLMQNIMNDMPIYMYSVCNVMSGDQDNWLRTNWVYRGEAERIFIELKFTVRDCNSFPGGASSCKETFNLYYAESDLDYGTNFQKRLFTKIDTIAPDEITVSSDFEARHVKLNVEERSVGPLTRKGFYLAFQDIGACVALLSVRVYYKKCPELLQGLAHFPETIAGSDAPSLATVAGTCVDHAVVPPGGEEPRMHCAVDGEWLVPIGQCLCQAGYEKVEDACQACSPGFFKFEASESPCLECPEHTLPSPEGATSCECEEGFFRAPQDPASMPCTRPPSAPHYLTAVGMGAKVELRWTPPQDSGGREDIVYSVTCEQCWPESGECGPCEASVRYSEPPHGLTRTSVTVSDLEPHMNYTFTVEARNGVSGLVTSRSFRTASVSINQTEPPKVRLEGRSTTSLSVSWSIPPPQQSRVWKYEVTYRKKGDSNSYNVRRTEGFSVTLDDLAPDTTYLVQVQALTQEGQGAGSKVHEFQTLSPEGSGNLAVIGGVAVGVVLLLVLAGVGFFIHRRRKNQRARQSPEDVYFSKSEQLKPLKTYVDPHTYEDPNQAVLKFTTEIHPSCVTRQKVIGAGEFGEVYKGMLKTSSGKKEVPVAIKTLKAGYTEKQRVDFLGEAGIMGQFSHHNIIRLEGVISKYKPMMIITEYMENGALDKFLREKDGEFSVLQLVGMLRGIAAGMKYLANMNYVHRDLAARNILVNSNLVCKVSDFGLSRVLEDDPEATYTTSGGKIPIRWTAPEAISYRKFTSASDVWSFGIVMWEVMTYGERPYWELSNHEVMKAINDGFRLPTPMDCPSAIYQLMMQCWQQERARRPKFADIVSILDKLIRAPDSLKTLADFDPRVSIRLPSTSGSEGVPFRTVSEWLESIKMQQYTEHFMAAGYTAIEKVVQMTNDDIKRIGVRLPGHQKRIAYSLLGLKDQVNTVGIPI
# UniProt P15056, whole entry, looked up: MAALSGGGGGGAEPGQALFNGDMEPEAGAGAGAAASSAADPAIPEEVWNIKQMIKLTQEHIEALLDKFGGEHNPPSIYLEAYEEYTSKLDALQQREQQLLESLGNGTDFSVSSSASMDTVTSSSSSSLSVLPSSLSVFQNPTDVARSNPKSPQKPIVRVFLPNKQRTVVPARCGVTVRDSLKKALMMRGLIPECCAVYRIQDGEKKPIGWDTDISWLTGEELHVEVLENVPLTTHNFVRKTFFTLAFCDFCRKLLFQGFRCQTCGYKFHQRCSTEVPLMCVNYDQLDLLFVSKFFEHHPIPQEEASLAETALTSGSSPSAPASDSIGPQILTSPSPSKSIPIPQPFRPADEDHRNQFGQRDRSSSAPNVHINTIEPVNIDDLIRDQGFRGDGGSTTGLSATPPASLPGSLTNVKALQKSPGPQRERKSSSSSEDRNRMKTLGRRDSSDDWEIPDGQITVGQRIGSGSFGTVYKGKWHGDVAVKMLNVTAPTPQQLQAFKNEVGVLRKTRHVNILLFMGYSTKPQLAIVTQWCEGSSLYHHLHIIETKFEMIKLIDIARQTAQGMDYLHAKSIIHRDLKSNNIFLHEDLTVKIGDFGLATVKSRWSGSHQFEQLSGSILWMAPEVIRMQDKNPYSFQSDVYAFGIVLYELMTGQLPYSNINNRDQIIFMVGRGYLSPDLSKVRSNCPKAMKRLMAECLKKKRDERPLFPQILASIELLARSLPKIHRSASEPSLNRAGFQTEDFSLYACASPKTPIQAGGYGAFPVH
# UniProt Q9UQB9: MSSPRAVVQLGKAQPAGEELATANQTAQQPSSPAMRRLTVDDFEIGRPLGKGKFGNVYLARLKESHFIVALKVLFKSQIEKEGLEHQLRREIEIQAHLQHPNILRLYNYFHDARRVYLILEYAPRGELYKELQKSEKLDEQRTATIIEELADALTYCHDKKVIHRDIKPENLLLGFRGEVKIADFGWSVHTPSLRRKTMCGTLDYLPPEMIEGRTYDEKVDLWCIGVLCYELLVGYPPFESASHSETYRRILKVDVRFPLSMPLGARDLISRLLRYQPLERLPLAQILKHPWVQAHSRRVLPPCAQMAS
# UniProt P53350, whole entry: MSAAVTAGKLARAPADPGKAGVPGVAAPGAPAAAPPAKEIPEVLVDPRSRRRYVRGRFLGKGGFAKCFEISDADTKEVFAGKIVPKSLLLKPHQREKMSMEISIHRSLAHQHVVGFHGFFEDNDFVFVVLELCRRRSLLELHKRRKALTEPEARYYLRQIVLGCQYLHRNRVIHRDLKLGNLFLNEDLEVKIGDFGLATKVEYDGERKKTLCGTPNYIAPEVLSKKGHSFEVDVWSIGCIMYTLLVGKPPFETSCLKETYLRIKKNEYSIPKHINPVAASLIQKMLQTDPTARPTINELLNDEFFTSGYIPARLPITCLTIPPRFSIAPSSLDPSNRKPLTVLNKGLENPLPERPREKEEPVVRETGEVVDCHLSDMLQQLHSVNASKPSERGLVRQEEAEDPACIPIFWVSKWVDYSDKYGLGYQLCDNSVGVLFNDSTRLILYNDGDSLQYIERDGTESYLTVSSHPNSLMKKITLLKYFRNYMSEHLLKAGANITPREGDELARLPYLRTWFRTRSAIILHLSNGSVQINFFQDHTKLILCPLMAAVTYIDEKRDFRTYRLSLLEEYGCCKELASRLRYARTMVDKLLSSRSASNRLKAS
# UniProt Q9Y6E0: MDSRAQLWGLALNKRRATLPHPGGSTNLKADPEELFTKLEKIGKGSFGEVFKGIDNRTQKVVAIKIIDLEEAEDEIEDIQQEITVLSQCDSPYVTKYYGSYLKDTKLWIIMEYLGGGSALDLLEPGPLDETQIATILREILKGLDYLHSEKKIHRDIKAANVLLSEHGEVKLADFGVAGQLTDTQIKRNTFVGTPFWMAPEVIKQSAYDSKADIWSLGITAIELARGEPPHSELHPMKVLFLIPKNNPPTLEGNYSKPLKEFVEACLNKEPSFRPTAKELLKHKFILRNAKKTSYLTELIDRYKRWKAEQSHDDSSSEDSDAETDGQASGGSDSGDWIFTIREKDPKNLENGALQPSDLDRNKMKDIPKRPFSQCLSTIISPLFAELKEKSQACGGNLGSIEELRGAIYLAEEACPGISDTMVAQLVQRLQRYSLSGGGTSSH
# Some of the results follow. Hit calls seldom repeat between salt and free forms of one compound.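 In K562 cells expressing nanoluciferase-fused kinases, luminescence was recorded at 4 h intervals between 2 and 18 h, normalized as percent of control with DMSO at 100% and a positive control at 0%. A significant (2 sigma) signal drop marks a time point as decreased. The authors' rule for a hit is not shown and takes in more than the number of time points.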
# Compound: C=CC(=O)N(C)CCOc1c(N)ncnc1-c1cc(F)cc(NC(=O)c2ccc(C3CC3)cc2F)c1C [Remibrutinib]
# Test: number of time points (of 5) at which kinase-Nluc abundance scored as decreased, DMSO-normalised (count); higher = more persistent destabilization
# Conditions: 10 µM; K562; 2-18 h
row,Target,number of time points
1,FGR (UniProt P09769),0
2,PTK2B (UniProt Q14289),0
3,LMTK2 (UniProt Q8IWU2),0
4,CSK (UniProt P41240),0
5,STK38 (UniProt Q15208),0
6,ZAP70 (UniProt P43403),0
7,SYK (UniProt P43405),0
8,RIPK2 (UniProt O43353),0
9,SPHK1 (UniProt Q9NYA1),0
10,ERBB3 (UniProt P21860),0
11,PAK4 (UniProt O96013),0
12,NTRK2 (UniProt Q16620),0
13,GSK3A (UniProt P49840),0
14,MAPK4 (UniProt P31152),0
15,TYK2 (UniProt P29597),0
16,EPHA2 (UniProt P29317),0

row,Target,number of time points
1,DYRK2 (UniProt Q92630),0
2,ARAF (UniProt P10398),0
3,ROR2 (UniProt Q01974),0
4,PRKAA1 (UniProt Q13131),0
5,INSRR (UniProt P14616),0
6,BRAF (UniProt P15056),0
7,PIK4CB (UniProt Q9UBF8),0
8,NTRK3 (UniProt Q16288),0
9,CSNK1D (UniProt P48730),0
10,PDK1 (UniProt Q15118),0
11,CDK3 (UniProt Q00526),0
12,MAP2K2 (UniProt P36507),0
13,FLT3 (UniProt P36888),0
14,AURKC (UniProt Q9UQB9),0
15,PLK1 (UniProt P53350),0
16,STK24 (UniProt Q9Y6E0),0

# Compound: C=CC(=O)N1CCC([C@@H]2CCNc3c(C(N)=O)c(-c4ccc(Oc5ccccc5)cc4)nn32)CC1 [Zanubrutinib]
# Test: as above
# Conditions: 10 µM; K562; 2-18 h
row,Target,number of time points
1,FGR (UniProt P09769),0
2,PTK2B (UniProt Q14289),0
3,LMTK2 (UniProt Q8IWU2),0
4,CSK (UniProt P41240),0
5,STK38 (UniProt Q15208),0
6,ZAP70 (UniProt P43403),0
7,SYK (UniProt P43405),0
8,RIPK2 (UniProt O43353),0
9,SPHK1 (UniProt Q9NYA1),0
10,ERBB3 (UniProt P21860),0
11,PAK4 (UniProt O96013),0
12,NTRK2 (UniProt Q16620),0
13,GSK3A (UniProt P49840),0
14,MAPK4 (UniProt P31152),0
15,TYK2 (UniProt P29597),0
16,EPHA2 (UniProt P29317),0

row,Target,number of time points
1,DYRK2 (UniProt Q92630),0
2,ARAF (UniProt P10398),0
3,ROR2 (UniProt Q01974),0
4,PRKAA1 (UniProt Q13131),0
5,INSRR (UniProt P14616),0
6,BRAF (UniProt P15056),0
7,PIK4CB (UniProt Q9UBF8),0
8,NTRK3 (UniProt Q16288),0
9,CSNK1D (UniProt P48730),0
10,PDK1 (UniProt Q15118),0
11,CDK3 (UniProt Q00526),0
12,MAP2K2 (UniProt P36507),0
13,FLT3 (UniProt P36888),0
14,AURKC (UniProt Q9UQB9),0
15,PLK1 (UniProt P53350),0
16,STK24 (UniProt Q9Y6E0),0

# Compound: C=CC(=O)N1CCC[C@@H](n2nc(-c3ccc(Oc4ccccc4)cc3)c3c(N)ncnc32)C1 [Ibrutinib]
# Test: as above
# Conditions: 2.5 µM; K562; 2-18 h
row,Target,number of time points
1,FGR (UniProt P09769),0
2,PTK2B (UniProt Q14289),0
3,LMTK2 (UniProt Q8IWU2),0
4,CSK (UniProt P41240),0
5,STK38 (UniProt Q15208),0
6,ZAP70 (UniProt P43403),0
7,SYK (UniProt P43405),0
8,RIPK2 (UniProt O43353),0
9,SPHK1 (UniProt Q9NYA1),0
10,ERBB3 (UniProt P21860),0
11,PAK4 (UniProt O96013),0
12,NTRK2 (UniProt Q16620),0
13,GSK3A (UniProt P49840),0
14,MAPK4 (UniProt P31152),0
15,TYK2 (UniProt P29597),0
16,EPHA2 (UniProt P29317),0

row,Target,number of time points
1,DYRK2 (UniProt Q92630),0
2,ARAF (UniProt P10398),0
3,ROR2 (UniProt Q01974),0
4,PRKAA1 (UniProt Q13131),0
5,INSRR (UniProt P14616),0
6,BRAF (UniProt P15056),0
7,PIK4CB (UniProt Q9UBF8),0
8,NTRK3 (UniProt Q16288),0
9,CSNK1D (UniProt P48730),0
10,PDK1 (UniProt Q15118),0
11,CDK3 (UniProt Q00526),0
12,MAP2K2 (UniProt P36507),0
13,FLT3 (UniProt P36888),0
14,AURKC (UniProt Q9UQB9),0
15,PLK1 (UniProt P53350),0
16,STK24 (UniProt Q9Y6E0),0
